Here are results for six molecules from article PMC10924143.

Holding throughout (test): co-IP; HA-tagged SEPT6, SEPT6-4KR, SEPT7 or SEPT7-5KR with endogenous septins (supplemental Fig. S5B, D); the text does not name the method or the cells for these panels
The target of experiment [1] is T1, HA-tagged SEPT7 quintuple mutant SEPT7-5KR (K429/431/432/433/435R) (human) (UniProt Q16181).
T1 sequence: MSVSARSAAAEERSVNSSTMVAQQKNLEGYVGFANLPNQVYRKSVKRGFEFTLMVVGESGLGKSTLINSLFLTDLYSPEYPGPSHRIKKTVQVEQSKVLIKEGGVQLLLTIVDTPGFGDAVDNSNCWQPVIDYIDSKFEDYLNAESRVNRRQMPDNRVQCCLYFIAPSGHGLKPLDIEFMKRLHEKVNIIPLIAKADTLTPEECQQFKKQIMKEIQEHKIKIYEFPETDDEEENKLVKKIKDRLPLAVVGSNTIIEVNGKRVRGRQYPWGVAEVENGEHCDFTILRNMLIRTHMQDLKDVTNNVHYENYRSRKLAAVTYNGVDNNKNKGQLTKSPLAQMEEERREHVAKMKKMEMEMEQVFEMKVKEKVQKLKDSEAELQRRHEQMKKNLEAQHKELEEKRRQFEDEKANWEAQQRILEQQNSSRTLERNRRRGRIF

The next experiment deals with T2, HA-tagged SEPT7 (human) (UniProt Q16181).
T2 sequence: T1 sequence with R429K, R431K, R432K, R433K, R435K

The target of experiment [2] is T3, HA-tagged SEPT6 (human), Q14141.
T3 chain: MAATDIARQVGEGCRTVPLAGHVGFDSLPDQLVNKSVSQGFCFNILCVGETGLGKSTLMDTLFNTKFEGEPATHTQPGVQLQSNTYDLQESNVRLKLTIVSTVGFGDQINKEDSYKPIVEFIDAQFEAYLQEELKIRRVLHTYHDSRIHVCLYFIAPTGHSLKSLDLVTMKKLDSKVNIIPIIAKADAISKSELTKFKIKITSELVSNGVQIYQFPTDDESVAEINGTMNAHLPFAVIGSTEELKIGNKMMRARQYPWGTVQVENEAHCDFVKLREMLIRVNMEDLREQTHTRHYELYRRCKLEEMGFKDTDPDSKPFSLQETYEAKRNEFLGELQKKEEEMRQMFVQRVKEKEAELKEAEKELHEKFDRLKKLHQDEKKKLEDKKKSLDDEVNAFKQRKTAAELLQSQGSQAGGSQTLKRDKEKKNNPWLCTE
Particulars: remark: other sources report otherwise.

In the next experiment the target is T4, HA-tagged SEPT6 (human) (UniProt Q14141).
T4 sequence: T3 chain

The target in experiment [3] is T5, HA-tagged SEPT7 (human), Q16181.
T5 chain: T1 sequence with R429K, R431K, R432K, R433K, R435K
The following applies: remark: other sources report otherwise.

Positions count from the first letter of the chain named. Results are given in words; binding and its absence hold for the method and conditions named. In cells and extracts the contact can be indirect. Some results given as binding are weak or reduced against the parent protein; the word gives no strength. Sequences can lack the tags named with a protein.

B1: endogenous SEPT9 (protein, UniProt Q9UHD8 1-586)
chain: MKKSYSGGTRTSSGRLRRLGDSSGPALKRSFEVEEVETPNSTPPRRVQTPLLRATVASSTQKFQDLGVKNSEPSARHVDSLSQRSPKASLRRVELSGPKAAEPVSRRTELSIDISSKQVENAGAIGPSRFGLKRAEVLGHKTPEPAPRRTEITIVKPQESAHRRMEPPASKVPEVPTAPATDAAPKRVEIQMPKPAEAPTAPSPAQTLENSEPAPVSQLQSRLEPKPQPPVAEATPRSQEATEAAPSCVGDMADTPRDAGLKQAPASRNEKAPVDFGYVGIDSILEQMRRKAMKQGFEFNIMVVGQSGLGKSTLINTLFKSKISRKSVQPTSEERIPKTIEIKSITHDIEEKGVRMKLTVIDTPGFGDHINNENCWQPIMKFINDQYEKYLQEEVNINRKKRIPDTRVHCCLYFIPATGHSLRPLDIEFMKRLSKVVNIVPVIAKADTLTLEERVHFKQRITADLLSNGIDVYPQKEFDEDSEDRLVNEKFREMIPFAVVGSDHEYQVNGKRILGRKTKWGTIEVENTTHCEFAYLRDLLIRTHMQNIKDITSSIHFEAYRVKRLNEGSSAMANGMEEKEPEAPEM
On to B1, for which the binding result (in experiment [1]; with HA-tagged SEPT7 (human)) was “binds” throughout.

B2: endogenous SEPT9, Q9UHD8 1-586 (protein)
chain: B1 chain
In the case of B2, in experiment [2], the binding entry is reported as “binds”.

B3: endogenous SEPT7 (protein, UniProt Q16181 1-437)
chain: T1 sequence with R429K, R431K, R432K, R433K, R435K
For B3, the binding result with HA-tagged SEPT6 (human) was “binds”.

B4: endogenous SEPT2 (protein, UniProt Q15019 1-361)
chain: MSKQQPTQFINPETPGYVGFANLPNQVHRKSVKKGFEFTLMVVGESGLGKSTLINSLFLTDLYPERVIPGAAEKIERTVQIEASTVEIEERGVKLRLTVVDTPGYGDAINCRDCFKTIISYIDEQFERYLHDESGLNRRHIIDNRVHCCFYFISPFGHGLKPLDVAFMKAIHNKVNIVPVIAKADTLTLKERERLKKRILDEIEEHNIKIYHLPDAESDEDEDFKEQTRLLKASIPFSVVGSNQLIEAKGKKVRGRLYPWGVVEVENPEHNDFLKLRTMLITHMQDLQEVTQDLHYENFRSERLKRGGRKVENEDMNKDQILLEKEAELRRMQEMIARMQAQMQMQMQGGDGDGGALGHHV
For B4, the binding result (in experiment [1]; with HA-tagged SEPT6 (human)) was “binds” in each case.

B5: endogenous SEPT2, Q15019 1-361 (protein)
chain: B4 chain
Turning to B5, the binding result in experiment [3] is “binds”.

B6: endogenous SEPT6 (protein, UniProt Q14141 1-434)
chain: T3 chain
B6: the binding entry (in experiment [1]; with HA-tagged SEPT7 (human)) was “binds” each time.
